Data taken from paper PMC3192046.
Results are given in words; binding and its absence hold for the method and conditions named. In cells and extracts the contact can be indirect. Some entries that bind do so weakly or less than the wild type.

By UniProt entry, the sequences of proteins in these tests, tags left out.
UniProt P25963: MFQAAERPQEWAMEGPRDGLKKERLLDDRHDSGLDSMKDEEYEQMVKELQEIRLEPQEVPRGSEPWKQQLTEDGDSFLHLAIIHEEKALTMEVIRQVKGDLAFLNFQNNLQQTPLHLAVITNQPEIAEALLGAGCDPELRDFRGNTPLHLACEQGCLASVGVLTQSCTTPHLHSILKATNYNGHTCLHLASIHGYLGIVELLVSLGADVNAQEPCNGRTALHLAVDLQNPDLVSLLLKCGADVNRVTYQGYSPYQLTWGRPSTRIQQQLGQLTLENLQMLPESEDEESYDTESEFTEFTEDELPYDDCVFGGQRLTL

Biological target: IκBα WT (UniProt P25963)
Experiment: co-IP; Protein-G cross-linked HA antibody precipitates exogenous IκBα WT or ubiquitin-IκBα fusion from HEK293 lysates (1% Igepal CA-630 lysis buffer, 15 min on ice); Western blot for IKKβ, βTrCP or p65; for IKKβ and βTrCP cells pretreated or not with 20 µM MG132 for 1 h and stimulated with 10 ng/ml TNFα for 20 min

binding: binds
B1: IKKβ kinase (enzyme, UniProt O14920 1-756)
chain: MSWSPSLTTQTCGAWEMKERLGTGGFGNVIRWHNQETGEQIAIKQCRQELSPRNRERWCLEIQIMRRLTHPNVVAARDVPEGMQNLAPNDLPLLAMEYCQGGDLRKYLNQFENCCGLREGAILTLLSDIASALRYLHENRIIHRDLKPENIVLQQGEQRLIHKIIDLGYAKELDQGSLCTSFVGTLQYLAPELLEQQKYTVTVDYWSFGTLAFECITGFRPFLPNWQPVQWHSKVRQKSEVDIVVSEDLNGTVKFSSSLPYPNNLNSVLAERLEKWLQLMLMWHPRQRGTDPTYGPNGCFKALDDILNLKLVHILNMVTGTIHTYPVTEDESLQSLKARIQQDTGIPEEDQELLQEAGLALIPDKPATQCISDGKLNEGHTLDMDLVFLFDNSKITYETQISPRPQPESVSCILQEPKRNLAFFQLRKVWGQVWHSIQTLKEDCNRLQQGQRAAMMNLLRNNSCLSKMKNSMASMSQQLKAKLDFFKTSIQIDLEKYSEQTEFGITSDKLLLAWREMEQAVELCGRENEVKLLVERMMALQTDIVDLQRSPMGRKQGGTLDDLEEQARELYRRLREKPRDQRTEGDSQEMVRLLLQAIQSFEKKVRVIYTQLSKTVVCKQKALELLPKVEEVVSLMNEDEKTVVRLQEKRQKELWNLLKIACSKVRGPVSGSPDSMNASRLSQPGQLMSQPSTASNSLPEPAKKSEELVAEAHNLCTLLENAIQDTVREQDQSFTALDWSWLQTEEEEHSCLEQAS
